Reference: publication PMC12540712
Results are given in words; binding and its absence hold for the method and conditions named. Binding seen in cells or lysates may run through a third protein. Some entries that bind do so weakly or less than the wild type. For part of these data: Where a sequence is shown, tags or fusion partners need not be part of it.

Sequences of proteins named here, by UniProt entry; tags and fusion partners are left off. A change or cut given only in a name is not applied to a line headed by its entry.
UniProt P28340: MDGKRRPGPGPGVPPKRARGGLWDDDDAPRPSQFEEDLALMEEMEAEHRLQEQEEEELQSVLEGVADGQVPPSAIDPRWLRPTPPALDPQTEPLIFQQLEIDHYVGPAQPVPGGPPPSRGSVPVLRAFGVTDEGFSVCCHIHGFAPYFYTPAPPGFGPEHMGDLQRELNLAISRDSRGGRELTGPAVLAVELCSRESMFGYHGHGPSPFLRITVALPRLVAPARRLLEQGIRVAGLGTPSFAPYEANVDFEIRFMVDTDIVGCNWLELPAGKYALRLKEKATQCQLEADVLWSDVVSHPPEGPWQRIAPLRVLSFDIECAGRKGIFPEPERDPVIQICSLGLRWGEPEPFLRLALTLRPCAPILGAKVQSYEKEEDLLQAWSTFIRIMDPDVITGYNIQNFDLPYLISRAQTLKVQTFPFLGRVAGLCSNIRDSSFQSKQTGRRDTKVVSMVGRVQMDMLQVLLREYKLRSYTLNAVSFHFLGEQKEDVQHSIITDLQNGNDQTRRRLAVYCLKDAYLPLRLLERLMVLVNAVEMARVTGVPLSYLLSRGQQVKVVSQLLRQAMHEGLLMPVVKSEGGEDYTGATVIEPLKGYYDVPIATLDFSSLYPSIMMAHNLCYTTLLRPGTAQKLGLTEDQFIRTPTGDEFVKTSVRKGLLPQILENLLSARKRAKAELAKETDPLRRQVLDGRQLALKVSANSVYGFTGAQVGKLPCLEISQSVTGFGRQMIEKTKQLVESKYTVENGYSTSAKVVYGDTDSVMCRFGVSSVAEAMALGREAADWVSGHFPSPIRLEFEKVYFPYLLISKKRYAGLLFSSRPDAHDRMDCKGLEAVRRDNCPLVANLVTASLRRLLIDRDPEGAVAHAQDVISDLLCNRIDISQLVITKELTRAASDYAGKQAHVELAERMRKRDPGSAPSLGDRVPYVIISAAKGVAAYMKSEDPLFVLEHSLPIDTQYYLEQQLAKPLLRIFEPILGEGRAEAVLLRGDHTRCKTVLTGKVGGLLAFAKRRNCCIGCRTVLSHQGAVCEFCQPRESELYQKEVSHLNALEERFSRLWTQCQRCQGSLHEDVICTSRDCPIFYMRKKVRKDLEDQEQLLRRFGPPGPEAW

What was measured:
[1] = biological target: T1, endogenous And-1 (human (endogenous in HEK293T)) (UniProt O75717); experiment: co-IP; endogenous And-1 in HEK293T cells, with or without UVB; protein A/G beads coupled with antibody, 4 °C overnight; 20 mM Tris-HCl pH 8.0, 100 mM NaCl, 1 mM EDTA, 0.5% NP-40, 10 mM NaF
T1 sequence: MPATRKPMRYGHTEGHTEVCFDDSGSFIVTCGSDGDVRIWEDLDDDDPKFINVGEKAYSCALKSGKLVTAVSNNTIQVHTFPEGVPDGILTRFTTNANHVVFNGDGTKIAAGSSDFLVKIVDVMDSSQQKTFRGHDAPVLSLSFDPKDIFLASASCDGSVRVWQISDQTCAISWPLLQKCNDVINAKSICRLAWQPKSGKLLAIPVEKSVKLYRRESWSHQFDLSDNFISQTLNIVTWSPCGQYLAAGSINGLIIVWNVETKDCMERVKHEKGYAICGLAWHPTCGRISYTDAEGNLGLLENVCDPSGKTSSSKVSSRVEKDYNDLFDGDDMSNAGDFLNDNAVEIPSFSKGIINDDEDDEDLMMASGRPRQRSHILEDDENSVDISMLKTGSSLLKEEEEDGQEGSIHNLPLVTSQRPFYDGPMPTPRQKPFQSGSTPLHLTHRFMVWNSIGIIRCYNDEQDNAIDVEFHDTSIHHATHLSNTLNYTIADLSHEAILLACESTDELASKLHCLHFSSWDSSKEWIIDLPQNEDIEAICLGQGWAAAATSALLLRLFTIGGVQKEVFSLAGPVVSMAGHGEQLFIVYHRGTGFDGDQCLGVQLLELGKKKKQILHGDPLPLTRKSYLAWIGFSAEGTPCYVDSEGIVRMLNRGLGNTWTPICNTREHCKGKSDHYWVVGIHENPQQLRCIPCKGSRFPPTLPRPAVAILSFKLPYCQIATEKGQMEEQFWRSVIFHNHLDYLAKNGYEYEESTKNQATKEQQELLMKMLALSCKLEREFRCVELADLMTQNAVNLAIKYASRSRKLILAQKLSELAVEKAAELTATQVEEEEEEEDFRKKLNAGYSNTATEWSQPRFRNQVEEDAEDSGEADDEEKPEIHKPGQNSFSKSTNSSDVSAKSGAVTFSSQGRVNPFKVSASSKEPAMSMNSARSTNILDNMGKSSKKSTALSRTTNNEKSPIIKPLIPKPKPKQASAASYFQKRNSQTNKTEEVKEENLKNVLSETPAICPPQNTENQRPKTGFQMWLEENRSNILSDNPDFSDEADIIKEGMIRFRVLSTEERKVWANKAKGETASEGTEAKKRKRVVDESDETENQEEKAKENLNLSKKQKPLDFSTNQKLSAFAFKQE

[2] = biological target: T2, FLAG-And-1 SepB domain (330–984) (human) (UniProt O75717); experiment: co-IP; FLAG-IP on Anti-FLAG-M2 affinity beads overnight from HEK293T cells expressing FLAG-And-1 or truncated mutants, with or without UVB; 20 mM Tris-HCl pH 8.0, 100 mM NaCl, 1 mM EDTA, 0.5% NP-40, 10 mM NaF
T2 sequence: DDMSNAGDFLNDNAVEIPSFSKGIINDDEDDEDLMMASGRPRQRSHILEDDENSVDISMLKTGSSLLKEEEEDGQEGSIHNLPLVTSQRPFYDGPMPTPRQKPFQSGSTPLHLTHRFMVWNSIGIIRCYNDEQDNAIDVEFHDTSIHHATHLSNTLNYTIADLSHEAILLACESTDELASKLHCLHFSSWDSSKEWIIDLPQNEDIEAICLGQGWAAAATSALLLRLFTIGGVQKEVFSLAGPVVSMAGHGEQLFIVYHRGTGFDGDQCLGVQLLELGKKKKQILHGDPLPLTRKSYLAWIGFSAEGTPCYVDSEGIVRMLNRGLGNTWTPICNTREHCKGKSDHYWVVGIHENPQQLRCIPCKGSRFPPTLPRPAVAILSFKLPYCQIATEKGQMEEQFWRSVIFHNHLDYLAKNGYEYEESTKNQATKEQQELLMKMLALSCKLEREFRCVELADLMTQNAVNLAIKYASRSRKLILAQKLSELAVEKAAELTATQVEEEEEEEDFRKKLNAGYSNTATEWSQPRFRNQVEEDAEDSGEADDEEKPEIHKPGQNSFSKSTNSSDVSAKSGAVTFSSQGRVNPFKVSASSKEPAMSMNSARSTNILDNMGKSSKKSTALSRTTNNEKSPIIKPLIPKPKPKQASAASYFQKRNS

[3] = biological target: T3, FLAG-And-1, full-length And-1 (FL, 1–1129) (human) (UniProt O75717); experiment: as above
T3 sequence: T1 sequence

Measured: binding

catalytic subunit of DNA polymerase δ (p125) (from UniProt P28340 1-1107)
binds: [1] | [2] | [3]
